Test results: the supplement of paper PMC12889115
This is one part of the list. These are raw signals, not scaled to a control.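 First-pass screen: polymyxin B was added at a level that permeabilizes the Salmonella outer membrane while sparing the inner membrane. DMSO wells, with and without polymyxin B, defined maximum growth. Because plates differed from one another, each plate's data were ranked separately and the compounds with the lowest OD600 were carried forward as hits.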

Test system: Salmonella enterica serovar Typhimurium SL1344
Assay: bacterial growth OD600 after 18 h with compound and polymyxin B; higher = more bacterial growth (less inhibition)
Settings: 50 µM, Mueller-Hinton broth

Compound	bacterial growth OD600 (polymyxin B 1 µg/mL)	bacterial growth OD600 (polymyxin B 0.75 µg/mL)
OCC1(Cc2cccc(Cl)c2)CCCN(Cc2ccc(F)c(F)c2)C1 (stereo not given)	0.001	
CC(Cc1cccnc1)N1CCC(Oc2ccc(C(=O)NCc3ccccn3)cc2)CC1 (stereo not given)	1.05	
C=CCN(CC=C)C(=O)c1csc2nc(-c3ccccc3Cl)cn12		0.478
CC(C)(O)C#Cc1ccc(CN2CC[C@@H](N3CCN(c4ccccn4)CC3)[C@H](O)C2)cc1		0.831
CCOC(=O)C1(CCOc2ccccc2)CCN(Cc2ccc(C)o2)CC1	0.779	
Cc1cccc(C(=O)N2CCCC(C(=O)c3cccc4ccccc34)C2)c1 (stereo not given)	0.002	
Cc1nnc(CN(C)C(=O)c2csc3nc(-c4cccc(F)c4)cn23)o1	1.13	
COc1ccc(NC(=O)CCC2CCCN(S(=O)(=O)N(C)C)C2)c(C)c1 (stereo not given)	1.2	
O=C(Cn1cc(NC(=O)CCOc2ccccc2)cn1)NCCCn1ncc2ccccc21		0.902
CCOC(=O)C1(CCOC)CCCN(C/C=C/c2ccc(OC)cc2)C1 (stereo not given)	1.02	
C=CCNC(=O)N1CCC2(CCCN(Cc3cc(OC)ccc3F)C2=O)C1 (stereo not given)		0.813
O=C1CCCN1CCCC(=O)N1CCCC(CCc2ccccc2F)C1 (stereo not given)		0.801
O=C(CCc1cn2ccccc2n1)NC1CCCN(CC2CCCCC2)C1 (stereo not given)	1.21	
O=C(CC(c1ccccc1)c1cccc(Cl)c1)NCCc1cnccn1 (stereo not given)	0.798	
COc1ccc(C(=O)NCCCn2cccn2)cc1OC1CCN(C(C)=O)CC1	0.795	
CN(CC1Cc2ccccc2O1)C(=O)CCC1(Cc2ccccc2)CCC(=O)N1 (stereo not given)		0.887
COc1ccc(C(=O)NCc2ccc(F)cc2)cc1OC1CCN(C(C)C)CC1	0.948	
COc1ccc(OC)c(CN2CCN(C3CCCCC3)C(CCO)C2)c1 (stereo not given)	0.948	
CCOC(=O)CNC(=O)N1CCC(CCC(=O)N(C)Cc2ccccc2)CC1	0.961	
O=C(Nc1ccnn1C1CCN(C(=O)Cn2cccn2)CC1)C1CCCC1	1.02	
O=C(Nc1ccnn1C1CCN(Cc2cc3ccccc3s2)CC1)C1CC1	0.766	
CCOc1ccc(CN2CCN(Cc3ccc(OC)c(C)c3C)C(CCO)C2)cc1CO (stereo not given)	1.02	
CCOc1cccc(CN2CCOc3ccc(CN4CCC(O)(c5cccnc5)CC4)cc3C2)c1		1.03
COc1ccc(OC2CCN(C3CCCC3)CC2)c(C(=O)NCCc2cn[nH]c2)c1	0.915	
COc1ccc(-c2nc(CN(Cc3ccccc3)C[C@@H]3CCC(=O)N3)c(C)o2)c(OC)c1C	0.074	
CC(=O)NCc1cccnc1N1CCCCCCC1	0.998	
CC(=O)N1CCN(c2ncccc2CNCc2ccc(-c3ccccc3)cc2)CC1		0.707
CCN(Cc1ccccc1)c1nc(CNC(=O)Cn2nc(C)c3ccccc3c2=O)nc2ccccc12		0.031
CC(=O)N1CCC(N2CCC(Oc3ccc(C(=O)NC4CCCC4)cc3Cl)CC2)CC1	0.939	
CC(=O)N1CCN(C(=O)CC(c2ccccc2)c2ccc(Cl)cc2)CC1 (stereo not given)	0.943	

Reformatted in CSV form: two of the compounds above.
Compound,bacterial growth OD600 (polymyxin B 1 µg/mL),bacterial growth OD600 (polymyxin B 0.75 µg/mL)
CC(Cc1cccnc1)N1CCC(Oc2ccc(C(=O)NCc3ccccn3)cc2)CC1 (stereo not given),1.05,
C=CCN(CC=C)C(=O)c1csc2nc(-c3ccccc3Cl)cn12,,0.478
